Source: PubChem BioAssay AID330 (DTP/NCI, 2004)
The list does not hold the whole screen: it is rich in T/C values a quarter to a half above the control, in often repeated tests (any T/C) and in doses without a T/C. Other doses and runs of a compound stand elsewhere. T/C gives the treated animals as a percentage of the vehicle group. Some doses have a count of surviving animals in place of a T/C: the source files T/C as zero there, which appears to mark a toxic dose or a test without result, not a measured value. Some doses without a T/C left all or most animals alive at the check, yet need not have been tolerated: survival well below the control is almost never listed, so the zero probably covers shortened survival too. Survivors were counted at the toxicity check, usually on the fifth day, unless a day is given; later deaths do not show. Schedule codes are those of the source, taken here to give the interval after Q, in days (D) or hours (H), and the number of doses after X. Some molecules as drawn cover several salts, stereoisomers or complexes of the source; a dose is that of the sample tested. Some entries were tested several times; the results are listed from low to high. Where survival is the endpoint, this PubChem deposit counts one and a half times the control or more as active, and values a quarter to a half above the control carry no call in these data; other NCI protocols may use other cut-offs. Some T/C values carry the count of animals alive at the toxicity check (mostly the fifth day); where none is given, no animal had died by that day.

System: P388 leukemia ip, CD2F1 mice, survival T/C
Assay: NCI In Vivo Anticancer Drug Screen. Data for tumor model P388 Leukemia (intraperitoneal) in CD2F1 (CDF1) mice
Conditions: T/C endpoint: median survival time, higher T/C = longer survival
[1] = dose: 200.0 mg/kg/injection, schedule: Q01DX009 (ip), vehicle: Klucel (hydroxypropylcellulose) (HPC)
[2] = dose: 200.0 mg/kg/injection, schedule: Q01DX005 (ip), vehicle: Klucel (hydroxypropylcellulose) (HPC)
[3] = dose: 240.0 mg/kg/injection, schedule: Q01DX005 (ip), vehicle: saline with Tween-80

CC(=O)OCc1c(COC(C)=O)c(-c2ccc(Cl)cc2)n2c1CCC2
survivor count (dose: 100.0 mg/kg/injection, schedule: Q01DX009 (ip), vehicle: Klucel (hydroxypropylcellulose) (HPC)): 6 of 6 | survivor count [1]: 0 of 6

O=C(O)CCC(=O)OCN1C(=O)C2C3C=CC(C2C1=O)C1C2C(=O)N(COC(=O)CCC(=O)O)C(=O)C2C31 (stereo unspecified)
survivor count (dose: 100.0 mg/kg/injection, schedule: Q01DX009 (ip), vehicle: water): 5 of 6 | survivor count (dose: 200.0 mg/kg/injection, schedule: Q01DX009 (ip), vehicle: water): 2 of 6 and 4 of 6

CN(C)CCCNC(=O)Cc1cc(O)c2c(c1O)C(=O)c1ccccc1C2=O
survivor count (dose: 400.0 mg/kg/injection, schedule: Q04DX003 (ip), vehicle: saline with Tween-80): 2 of 6

Oc1[nH]c2ccccc2c1N=NC(=S)SCc1ccccc1
survivor count (dose: 50.0 mg/kg/injection, schedule: Q01DX009 (ip), vehicle: saline): 6 of 6 | survivor count (dose: 100.0 mg/kg/injection, schedule: Q01DX009 (ip), vehicle: saline): 6 of 6 | survivor count (dose: 200.0 mg/kg/injection, schedule: Q01DX009 (ip), vehicle: saline): 6 of 6

COC1C=C(Cl)C(=O)C(C)O1 (stereo unspecified)
survivor count (dose: 100.0 mg/kg/injection, schedule: Q04DX003 (ip), vehicle: Klucel (hydroxypropylcellulose) (HPC)): 6 of 6 | survivor count (dose: 200.0 mg/kg/injection, schedule: Q04DX003 (ip), vehicle: Klucel (hydroxypropylcellulose) (HPC)): 6 of 6 | survivor count (dose: 400.0 mg/kg/injection, schedule: Q04DX003 (ip), vehicle: Klucel (hydroxypropylcellulose) (HPC)): 1 of 6

Nc1nc(N)c(-c2ccc(Cl)cc2)c(COc2ccc(NC(=O)c3ccc(NC(=O)CCl)cc3)cc2)n1
survivor count (dose: 100.0 mg/kg/injection, schedule: Q01DX001 (ip), vehicle: saline with Tween-80): 1 of 6 | survivor count (dose: 200.0 mg/kg/injection, schedule: Q01DX001 (ip), vehicle: saline with Tween-80): 1 of 6 | survivor count (dose: 400.0 mg/kg/injection, schedule: Q01DX001 (ip), vehicle: saline with Tween-80): 0 of 6

Fc1c(F)c(F)c(SN=S=Nc2ccccc2)c(F)c1F
survivor count [2]: 6 of 6

Nc1n[nH]c2ccccc12
T/C [2]: 125 % of control | T/C (dose: 400.0 mg/kg/injection, schedule: Q01DX005 (ip), vehicle: Klucel (hydroxypropylcellulose) (HPC)): 131 % of control [5 of 6 alive]

C=CCNC(=S)n1cnc(N)n1
survivor count [3]: 1 of 6

CCN(CC)CCCCCCNc1cc(OC)c(Cl)c2cccnc12
survivor count (dose: 100.0 mg/kg/injection, schedule: Q01DX005 (ip), vehicle: saline): 0 of 5 | survivor count (dose: 200.0 mg/kg/injection, schedule: Q01DX005 (ip), vehicle: saline): 0 of 5

CN(C)/C=N/c1c(C#N)c(-c2ccccc2)c(-c2ccccc2)n1-c1ccccc1
survivor count (dose: 100.0 mg/kg/injection, schedule: Q01DX009 (ip), vehicle: saline with Tween-80): 6 of 6

O=C1NC(=O)/C(=C\c2ccco2)S1
survivor count (dose: 50.0 mg/kg/injection, schedule: Q01DX009 (ip), vehicle: Klucel (hydroxypropylcellulose) (HPC)): 0 of 6

c1ccc2c(c1)CCNC2C1NCCc2ccccc21 (stereo unspecified)
survivor count [1]: 0 of 6 | survivor count (dose: 400.0 mg/kg/injection, schedule: Q01DX001 (ip), vehicle: Klucel (hydroxypropylcellulose) (HPC)): 0 of 6 | survivor count (dose: 400.0 mg/kg/injection, schedule: Q01DX009 (ip), vehicle: Klucel (hydroxypropylcellulose) (HPC)): 0 of 6

CCC(C)P(=O)(N1CC1)N1CC1 (stereo unspecified)
T/C (dose: 12.5 mg/kg/injection, schedule: Q01DX009 (ip), vehicle: saline): 127 % of control | T/C (dose: 12.5 mg/kg/injection, schedule: Q04DX003 (ip), vehicle: saline): 140 % of control

COc1ccc2c(c1)N(C(=O)CNC(C)(C)C)c1ccccc1S2
survivor count (dose: 400.0 mg/kg/injection, schedule: Q04DX002 (ip), vehicle: saline): 1 of 6

CC(C)Cc1cc(-c2cc(CC(C)C)nc(N)n2)nc(N)n1
survivor count (dose: 240.0 mg/kg/injection, schedule: Q01DX005 (ip), vehicle: saline): 3 of 6

O=C(CCl)Nc1nncs1
survivor count (dose: 400.0 mg/kg/injection, schedule: Q01DX009 (ip), vehicle: distilled water + Tween-80): 0 of 6

CCC=Nc1c(O)cc(-c2ccccc2)n(C)c1=O
survivor count [3]: 0 of 6
